Laboratory results as given in the supplement of paper PMC5949888.
Most values lie at the floor of the assay. Slopes are relative: functional sequences can read slightly below zero.

Tested on: Saccharomyces cerevisiae PS128 hsf1 delta, HSF1(1-493) fusion
Experiment: growth estimate (transactivation domain function in HSF1 fusion, heat-shock survival) (a.u. (slope of normalised read count over time)); higher = stronger growth at 37°C, i.e. more transactivation activity
Conditions: library: random library

Row | Substance | growth estimate
1 | EYPL | < -0.25
2 | PPDAKGVA | < -0.25
3 | SIVFTDF | < -0.25
4 | PSLGTGGSDLGLEGFILKC | < -0.25
5 | RSCYACRKFCSYVLCSYETP | < -0.25
6 | EILTPLQIIMSQKAAYP | < -0.25
7 | WASVEDSVPCHDDV | < -0.25
8 | TLSVACRTWKGT | < -0.25
9 | YASLRFQAVGICHGTFRW | < -0.25
10 | FSRVEDAHYAAPYRT | < -0.25
11 | HKCPATVMVESIGHLPPASG | -0.246
12 | PAGSTVKGPNSSLLIGQTRR | < -0.25
13 | YVNHYVIY | < -0.25
14 | SMPPFIMLPVHAGSGEPWR | < -0.25
15 | KSQRMS | < -0.25
16 | ETVRRLRQYDQR | < -0.25
17 | GIAKW | < -0.25
18 | RRLRRSSPRVVYQFSQQEGT | < -0.25
19 | NGGGPAPSLMQGRSTYLHQS | < -0.25
20 | LCRENYACL | < -0.25
21 | IQGEFLVGAKDGLSVERKTS | < -0.25
22 | SIRPYRLLDFGGRTSQPLSE | < -0.25
23 | TGYSNPLQLIRWKGVR | < -0.25
24 | WPRPGKATQVRLPTHRLLLG | < -0.25
25 | CQIKYNTLHAM | < -0.25

Row | Substance | growth estimate
26 | IPSEEASSTA | < -0.25
27 | RRIKLAQRIPGGYPGASCSA | < -0.25
28 | LWVMKARAKCQTHGRSGSET | < -0.25
29 | YGGERLEVEGYRGLYLDGAN | < -0.25
30 | VRIVEKVDRTANCGSAPLSV | -0.246
31 | YIIGAAFVTWIAGPLLPMNR | < -0.25
32 | VRILLAEASCLVANRGGLAW | < -0.25
33 | YSLVRFRSIKKTCRFDGKSE | < -0.25
34 | IEQNTGTLLNLRIHHGSMFA | < -0.25
35 | SELEKGYTRQGFLRNLNSGA | < -0.25
36 | IAVTTFSV | < -0.25
37 | SVTREVDGHSAVGKAVVTSM | < -0.25
38 | FCPILQNTLRLPPPDTKEGI | < -0.25
39 | DDHHCVMTTPI | < -0.25
40 | RCQGNRHSLP | < -0.25
41 | HYTATPQFRSLCD | < -0.25
42 | CFYVIDTSSDSMCQVDGNES | < -0.25
43 | GWEPLPHTRG | < -0.25
44 | DASHVHSAHPGT | < -0.25
45 | GWISARLCAQASVFGLHQPR | < -0.25
46 | ALL | < -0.25
47 | RLPSVKAEGTVRYN | < -0.25
48 | LGNRFAIWVDRVKTMRQVHL | < -0.25
49 | TEARLGTVF | < -0.25
50 | IVAL | < -0.25

Laid out differently: entries from further up.

| Row | Substance | growth estimate |
| --- | --- | --- |
| 2 | PPDAKGVA | < -0.25 |
| 9 | YASLRFQAVGICHGTFRW | < -0.25 |
| 11 | HKCPATVMVESIGHLPPASG | -0.246 |

Remaining list, next part:

Row | Substance | growth estimate
51 | QEARLEWSSVR | < -0.25
52 | EDMKCVGELRMSSFVSFESQ | < -0.25
53 | SALRPT | < -0.25
54 | SDQ | < -0.25
55 | HSPPNLAVYAAHQERTCGQQ | < -0.25
56 | YTDFGRWCTEGAGAALHAEC | < -0.25
57 | LTERMRRFKIRL | < -0.25
58 | QLLGDLVVGFRLVYRSGPRP | < -0.25
59 | PQASSMMLQLVLYRGAMDRR | < -0.25
60 | KASGPG | < -0.25
61 | LDRYWY | -0.181
62 | PGTMSAGDF | < -0.25
63 | GVLRRR | < -0.25
64 | WAGVERSMLEGRGGLSS | < -0.25
65 | KCAKAITVGCLPGIFRALDY | < -0.25
66 | SPGGMLSEGIRKRACIANSG | < -0.25
67 | VAWRNARRCGGASKT | < -0.25
68 | FAPMGLSGVEDEFLPCQV | -0.235
69 | EWSRGHCKLN | < -0.25
70 | KSSGERKLNRIVGEGPSVKL | < -0.25
71 | LNPLRESGSSRYPLTTDTD | < -0.25
72 | CAGE | < -0.25
73 | IQLVIWHIPSAVQRRGRPTP | < -0.25
74 | YRVGALVATRQDTPPNRLPR | < -0.25
75 | SGA | < -0.25

Row | Substance | growth estimate
76 | STGRFGVPPQFIKSNA | < -0.25
77 | CDNLATAAYLAISIFCVIPL | < -0.25
78 | MGPAFKDLRCISLRYLR | < -0.25
79 | PSR | < -0.25
80 | SHATVARMVSVRRLLESYFP | < -0.25
81 | HCLLRGSWGLDHSGTIRFC | < -0.25
82 | NWVEDRSASYHRCYQSTFLP | < -0.25
83 | QVTIRRFGPGPMGQYMDR | < -0.25
84 | HDWE | < -0.25
85 | YENTRG | < -0.25
86 | FESMW | < -0.25
87 | WCSGVTVVTYCEWNVVISTV | < -0.25
88 | NEGCQGW | < -0.25
89 | LCLVGHLEAGT | < -0.25
90 | TSCFLVCLCPHV | < -0.25
91 | IRGESSTEVNGDPRFSSHSP | < -0.25
92 | GTIRHGTLVTGRNEKAASKG | < -0.25
93 | CQVPRWCKCSCRSVRQHCGR | < -0.25
94 | GKRKGVRARRKRIARGFDRQ | < -0.25
95 | DVSRCRSALGRTEKP | < -0.25
96 | RRRSVEHPLR | < -0.25
97 | MISGRAFDMLSSAVRDGPVY | < -0.25
98 | SRPFQVGPPKQVERA | < -0.25
99 | RGVGLN | < -0.25
100 | WYIGPEQ | < -0.25

Some of the entries so far, field by field:
WCSGVTVVTYCEWNVVISTV
  growth estimate: < -0.25
NEGCQGW
  growth estimate: < -0.25
